For at least one compound, name, drawing or mass did not settle the structure.
Biological target: PDE4 enzyme
Test: Inhibition of Phosphodiesterase Enzymes (PDE4), [3H]cAMP hydrolysis
Assay type: biochemical
Conditions: 1 μM cAMP and 3H cAMP, 34° C.
Experimental: Inhibition of Phosphodiesterase Enzymes (PDE4)
In this assay, PDE4 enzyme converts [^3H] cAMP to the corresponding [^3H] 5′-AMP in proportion to the amount of PDE4 present The [^3H] 5′-AMP then was quantitatively converted to free [^3H] adenosine and phosphate by the action of snake venom 5′-nucleotidase.
The assay was performed with modification of the method of Thompson and Appleman (Biochemistry; 1971; 10; 311-316) and Schwartz and Passoneau (Proc. Natl. Acad. Sci. U.S.A. 1974; 71; 3844-3848), both references incorporated herein by reference in their entirety, at 34° C. In a 200 ul total reaction mixture, the reaction mixture contained 12.5 mM of Tris, 5 mM MgCl2, 1 μM cAMP (cold) and ^3H cAMP (0.1 uCi), (Amersham). […] Drug samples were then added in the reaction mixture (25 μl/tube). […] The samples in the plates were then determined for radioactivity in a Top Counter and the PDE4 activity was estimated. PDE4 enzyme was present in quantities that yield <30% total hydrolysis of substrate (linear assay conditions).
Results were expressed as percent inhibition (IC50) in nM concentrations. The IC50 values were determined from the concentration curves by nonlinear regression analysis.
The IC50 value for the compound examined was determined from concentration-response curves in which varying range of concentrations were considered as shown in table 1

## COc1ccc(C(=O)Nc2c(Cl)c[n+]([O-])cc2Cl)c2c1oc1ccccc12 [Example 2, N-(3,5-dichloropyrid-4-yl)-4-methoxy dibenzo[b,d]furan-1-carboxamide-N1-oxide]
  IC50: 820 pM

From patent US7238725B2, “Tricyclic compounds useful for the treatment of inflammatory and allergic disorders: process for their preparation and pharmaceutical compositions containing them” (Glenmark Pharmaceuticals Ltd., priority 2002, dated 2007)
